Source: the supplement of paper PMC4604168 (melanoma cell lines)
Some of the results follow. Single values are uncertain, as repeats are few or missing.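 The apoptosis fraction was the count of cleaved-PARP antibody-stained nuclei relative to all DNA-stained nuclei, imaged in 1,536-well plates. Screening doses were set so most cells survived, and baseline and induced cleaved-PARP levels vary greatly across cell lines.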

What was measured:
Assay in all cases: cleaved PARP positive nuclei fraction relative to DMSO control; melanoma cells; higher = more apoptosis
Conditions in all cases: library dose: low library concentration; 72 h
501Mel = system: 501Mel
A101D = system: A101D
A2058 = system: A2058
A375 = system: A375
C32 = system: C32
CBRC008 = system: CBRC008 (line from a melanoma biopsy)
CBRC013 = system: CBRC013 (line from a melanoma biopsy)
CBRC014 = system: CBRC014 (line from a melanoma biopsy)
CBRC016 = system: CBRC016 (line from a melanoma biopsy)
CBRC017 = system: CBRC017 (line from a melanoma biopsy)

| Compound | cleaved PARP positive nuclei fraction (501Mel) | cleaved PARP positive nuclei fraction (A101D) | cleaved PARP positive nuclei fraction (A2058) | cleaved PARP positive nuclei fraction (A375) | cleaved PARP positive nuclei fraction (C32) | cleaved PARP positive nuclei fraction (CBRC008) | cleaved PARP positive nuclei fraction (CBRC013) | cleaved PARP positive nuclei fraction (CBRC014) | cleaved PARP positive nuclei fraction (CBRC016) | cleaved PARP positive nuclei fraction (CBRC017) |
| --- | --- | --- | --- | --- | --- | --- | --- | --- | --- | --- |
| Cc1nc(Nc2ncc(C(=O)Nc3c(C)cccc3Cl)s2)cc(N2CCN(CCO)CC2)n1 [dasatanib] + O=C(O)c1ccc(-c2c[nH]c3ncc(-c4ccccc4)cc23)cc1C1CCCC1 [GSK650394] (first compound 0.004 µM, partner dose 0.16 µM) | 94.7% | 123% | 160% | 120% | 222% | 416% | 112% | 157% | 280% | 116% |
| Cn1nnc2c(C(N)=O)ncn2c1=O [temozolomide] + Cc1cc(N2CCOCC2)cc2[nH]c(-c3c(NC[C@@H](O)c4cccc(Cl)c4)cc[nH]c3=O)nc12 [BMS536924] (first compound 2 µM, partner dose 0.2 µM) | 75% | 80.2% | 124% | 75.7% | 210% | 91.9% | 113% | 110% | 129% | 94.5% |
| CO[C@@H]1[C@H](N(C)C(=O)c2ccccc2)C[C@H]2O[C@]1(C)n1c3ccccc3c3c4c(c5c6ccccc6n2c5c31)C(=O)NC4 [Midostaurin] + O=C(O)c1ccc(-c2c[nH]c3ncc(-c4ccccc4)cc23)cc1C1CCCC1 [GSK650394] (first compound 0.08 µM, partner dose 0.16 µM) | 87.2% | 180% | 115% | 139% | 81.5% | 429% | 133% | 121% | 156% | 124% |
| COc1cc(Nc2ncc(F)c(Nc3ccc4c(n3)NC(=O)C(C)(C)O4)n2)cc(OC)c1OC [Tamatinib] + CN(NC(=O)CC(=O)NN(C)C(=S)c1ccccc1)C(=S)c1ccccc1 [STA4783] (first compound 0.4 µM, partner dose 0.006 µM) | 200% | 70.2% | 271% | 4090% | 139% | 1160% | 151% | 594% | 293% | 372% |
| OCCn1cc(-c2cnc3nnn(Cc4ccc5ncccc5c4)c3n2)cn1 + NCC(=O)Nc1ccc(-n2nc(C(F)(F)F)cc2-c2ccc3c(ccc4ccccc43)c2)cc1 [OSU03012] (first compound 1 µM, partner dose 1 µM) | 283% | 66.5% | 243% | 4150% | 110% | 41.1% | 178% | 77.9% | 95.4% | 84.1% |
| Cc1ccc(NC(=O)c2cccc(N(C)C)c2)cc1NC(=O)c1ccc(O)cc1 + Cn1cncc1[C@@](N)(c1ccc(Cl)cc1)c1ccc2c(c1)c(-c1cccc(Cl)c1)cc(=O)n2C [tipifarnib] (first compound 2 µM, partner dose 0.01 µM) | 220% | 93.3% | 155% | 249% | 122% | 132% | 96.4% | 116% | 123% | 87.8% |
| OCc1c[nH]c2ccccc12 [Indole-3-carbinol] + COc1cc2c(Oc3ccc4[nH]c(C)cc4c3F)ncnc2cc1OCCCN1CCCC1 [cediranib] (first compound 0.8 µM, partner dose 0.4 µM) | 104% | 297% | 73.7% | 141% | 76.3% | 98% | 115% | 95.8% | 121% | 78.9% |
| C=CCn1c(=O)c2cnc(Nc3ccc(N4CCN(C)CC4)cc3)nc2n1-c1cccc(C(C)(C)O)n1 + CO[C@@H]1[C@H](N(C)C(=O)c2ccccc2)C[C@H]2O[C@]1(C)n1c3ccccc3c3c4c(c5c6ccccc6n2c5c31)C(=O)NC4 [Midostaurin] (first compound 0.02 µM, partner dose 0.08 µM) | 98.3% | 324% | 157% | 52.6% | 188% | 163% | 120% | 131% | 181% | 103% |
| C#Cc1cccc(Nc2ncnc3cc(OCCOC)c(OCCOC)cc23)c1 [erlotinib] + CC1(C)NC(=O)N(c2ccc([N+](=O)[O-])c(C(F)(F)F)c2)C1=O [nilutamide] (first compound 0.8 µM, partner dose 1 µM) | 111% | 86.9% | 90.9% | 57.6% | 63.4% | 87.7% | 98.4% | 96.1% | 27.3% | 104% |
| C#Cc1cccc(Nc2ncnc3cc(OCCOC)c(OCCOC)cc23)c1 [erlotinib] + C=CCn1c(=O)c2cnc(Nc3ccc(N4CCN(C)CC4)cc3)nc2n1-c1cccc(C(C)(C)O)n1 [MK1775] (first compound 0.8 µM, partner dose 0.02 µM) | 308% | 57.9% | 73.2% | 221% | 25.1% | 163% | 179% | 124% | 46.2% | 153% |
| Cn1nnc2c(C(N)=O)ncn2c1=O [temozolomide] + COc1cc(Nc2ncc(F)c(Nc3ccc4c(n3)NC(=O)C(C)(C)O4)n2)cc(OC)c1OC [Tamatinib] (first compound 2 µM, partner dose 0.4 µM) | 70.6% | 112% | 219% | 64.1% | 149% | 79.5% | 155% | 84.2% | 110% | 89.7% |
| Cn1nnc2c(C(N)=O)ncn2c1=O [temozolomide] + O=C(CCCCCCC(=O)Nc1ccccc1)NO [vorinostat] (first compound 2 µM, partner dose 0.08 µM) | 83.7% | 76.5% | 30.9% | 57.4% | 30.8% | 73.3% | 97% | 85.5% | 202% | 67% |
| Nc1cccc2c1CN(C1CCC(=O)NC1=O)C2=O (stereo not given) [lenalidomide] + C[C@@H]1CCN(C(=O)CC#N)C[C@@H]1N(C)c1ncnc2[nH]ccc12 [CP690550] (first compound 1 µM, partner dose 1 µM) | 80.8% | 152% | 171% | 60.2% | 213% | 169% | 127% | 89.9% | 99.6% | 199% |
| Cn1nnc2c(C(N)=O)ncn2c1=O [temozolomide] + OCCn1cc(-c2cnc3nnn(Cc4ccc5ncccc5c4)c3n2)cn1 [PF04217903] (first compound 2 µM, partner dose 1 µM) | 64.1% | 83.2% | 261% | 135% | 49.2% | 117% | 123% | 82.9% | 184% | 101% |
| OCCn1cc(-c2cnc3nnn(Cc4ccc5ncccc5c4)c3n2)cn1 + O=C(O)c1ccc(-c2c[nH]c3ncc(-c4ccccc4)cc23)cc1C1CCCC1 [GSK650394] (first compound 1 µM, partner dose 0.16 µM) | 94.2% | 107% | 115% | 157% | 52.9% | 470% | 91.1% | 64.6% | 182% | 117% |
| Cn1nnc2c(C(N)=O)ncn2c1=O [temozolomide] + CN(NC(=O)CC(=O)NN(C)C(=S)c1ccccc1)C(=S)c1ccccc1 [STA4783] (first compound 2 µM, partner dose 0.006 µM) | 382% | 216% | 300% | 5980% | 240% | 4430% | 118% | 469% | 226% | 836% |
| Clc1ccc(Nc2nnc(Cc3ccncc3)c3ccccc23)cc1 [vatalanib] + Cc1ccc(NC(=O)c2cccc(N(C)C)c2)cc1NC(=O)c1ccc(O)cc1 [ZM336372] (first compound 2 µM, partner dose 2 µM) | 86.7% | 77.6% | 129% | 242% | 149% | 386% | 91.7% | 144% | 147% | 76.2% |
| C=CCNC1=C2C[C@@H](C)C[C@H](OC)[C@H](O)[C@@H](C)/C=C(\C)[C@H](OC(N)=O)[C@@H](OC)/C=C\C=C(/C)C(=O)NC(=CC1=O)C2=O [Tanespimycin] + O=C(CCCCCCC(=O)Nc1ccccc1)NO [vorinostat] (first compound 0.002 µM, partner dose 0.08 µM) | 91.4% | 83.5% | 80.9% | 70.1% | 132% | 50.8% | 75.7% | 90.8% | 123% | 86.4% |
| C[C@@H]1CCN(C(=O)CC#N)C[C@@H]1N(C)c1ncnc2[nH]ccc12 + Cn1cncc1[C@@](N)(c1ccc(Cl)cc1)c1ccc2c(c1)c(-c1cccc(Cl)c1)cc(=O)n2C [tipifarnib] (first compound 1 µM, partner dose 0.01 µM) | 241% | 78.8% | 68% | 96.5% | 47.7% | 215% | 144% | 85.1% | 195% | 102% |
| O=C(Nc1cccc(Cl)c1)Nc1ncc(CCNc2ncnc3ccsc23)s1 + CN(C)S(=O)(=O)c1ccc2c(c1)/C(=C/c1cc3c([nH]1)CCCC3)C(=O)N2 [SU6656] (first compound 0.0008 µM, partner dose 0.4 µM) | 93.6% | 83.1% | 32.5% | 123% | 51.4% | 63.3% | 117% | 102% | 104% | 93% |
| Nc1cccc2c1CN(C1CCC(=O)NC1=O)C2=O (stereo not given) [lenalidomide] + C=CCn1c(=O)c2cnc(Nc3ccc(N4CCN(C)CC4)cc3)nc2n1-c1cccc(C(C)(C)O)n1 [MK1775] (first compound 1 µM, partner dose 0.02 µM) | 108% | 86.8% | 29.9% | 182% | 85.3% | 428% | 112% | 161% | 168% | 80.3% |
| Clc1ccc(Nc2nnc(Cc3ccncc3)c3ccccc23)cc1 [vatalanib] + NC(=O)Nc1cc(-c2cccc(F)c2)sc1C(=O)N[C@H]1CCCNC1 [AZD7762] (first compound 2 µM, partner dose 0.02 µM) | 94.7% | 211% | 127% | 194% | 70.2% | 173% | 112% | 134% | 140% | 122% |

Reformatted as tab-separated lines: part of the list above
Compound	cleaved PARP positive nuclei fraction (501Mel)	cleaved PARP positive nuclei fraction (A101D)	cleaved PARP positive nuclei fraction (A2058)	cleaved PARP positive nuclei fraction (A375)	cleaved PARP positive nuclei fraction (C32)	cleaved PARP positive nuclei fraction (CBRC008)	cleaved PARP positive nuclei fraction (CBRC013)	cleaved PARP positive nuclei fraction (CBRC014)	cleaved PARP positive nuclei fraction (CBRC016)	cleaved PARP positive nuclei fraction (CBRC017)
OCc1c[nH]c2ccccc12 [Indole-3-carbinol] + COc1cc2c(Oc3ccc4[nH]c(C)cc4c3F)ncnc2cc1OCCCN1CCCC1 [cediranib] (first compound 0.8 µM, partner dose 0.4 µM)	104%	297%	73.7%	141%	76.3%	98%	115%	95.8%	121%	78.9%
Clc1ccc(Nc2nnc(Cc3ccncc3)c3ccccc23)cc1 [vatalanib] + NC(=O)Nc1cc(-c2cccc(F)c2)sc1C(=O)N[C@H]1CCCNC1 [AZD7762] (first compound 2 µM, partner dose 0.02 µM)	94.7%	211%	127%	194%	70.2%	173%	112%	134%	140%	122%
